These results are taken from patent EP4803549A1.

Amino acid sequences for entries named in this document (tags omitted). A change or cut given only in a name is not applied to a line headed by its entry.
UniProt Q02223: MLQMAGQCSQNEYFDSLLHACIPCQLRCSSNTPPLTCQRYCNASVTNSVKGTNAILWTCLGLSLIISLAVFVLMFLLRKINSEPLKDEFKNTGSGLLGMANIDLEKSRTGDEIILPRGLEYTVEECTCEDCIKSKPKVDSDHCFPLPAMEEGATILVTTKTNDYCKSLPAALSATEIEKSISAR
UniProt Q9NZD1: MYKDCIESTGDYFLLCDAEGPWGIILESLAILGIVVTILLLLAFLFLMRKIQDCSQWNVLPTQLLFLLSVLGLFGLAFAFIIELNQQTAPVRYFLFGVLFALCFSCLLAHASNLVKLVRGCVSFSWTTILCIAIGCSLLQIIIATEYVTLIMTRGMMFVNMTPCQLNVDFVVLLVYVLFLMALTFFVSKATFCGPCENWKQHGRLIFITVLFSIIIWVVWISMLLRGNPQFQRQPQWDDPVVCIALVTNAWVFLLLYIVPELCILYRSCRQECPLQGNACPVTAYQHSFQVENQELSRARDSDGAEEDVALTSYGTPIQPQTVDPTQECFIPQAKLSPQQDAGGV

For experiment [1], the target named is human BCMA protein expressed on the cell surface (human) (UniProt Q02223). The experiment in a line: flow cytometry on NCI-H929 cells endogenously expressing human BCMA. On the technique in general: Flow cytometry measures light scatter and fluorescence of single cells or particles in a stream.
For experiment [2] the target is unchanged. The experiment in a line: flow cytometry on CHOK1-huBCMA cells.
Experiment [3] addresses human GPRC5D protein expressed on the cell surface (human) (UniProt Q9NZD1). The experiment in a line: flow cytometry on 293T cells expressing human GPRC5D.

No constants are given. Whether binding was seen depends on the method and setting. Some results given as binding are weak or reduced against the parent protein; the word gives no strength. For part of these data: Tags and fused reporters may be left off the sequences shown.

B1: 269B094 (a fully human monoclonal antibody targeting BCMA) (antibody, V domains shown)
VH: DVQLVESGGGLVQPGGSLRLSCAASGRTFSSIVMGWFRQAPGKEREFVGAIMWNDGITYLQDSVKGRFTIFRDNAKNTVYLQMNSLKLEDTAVYYCAASKGRYSEYEYWGQGTQVTVSS
Regarding B1, the binding entry in experiment [1] and in experiment [2] was “binds” throughout.

B2: camelid-derived anti-GPRC5D VHH-Fc antibody (antibody, human IgG1, V domains shown)
VH: EVQLQESGGGLVQAGGSLRLSCAASGIFLSASVMRWYRRAPGKQRELVASMLNSNTNYADSVKGRFTISRDNTKNTMYLQMNSLKPEDTAVYYCNAERSGVYWGQGTQVTVSS
As for B2, in experiment [3], the binding result is given as “binds”.
